Results are given in words; binding and its absence hold for the method and conditions named. Binding seen in cells or lysates may run through a third protein. Some binding calls cover weakened binding; strength is not graded here.
Tests used:
Pelle (Drosophila) = molecular target: T1, Pelle (Drosophila) (UniProt Q05652); assay: co-IP; S2 cells co-transfected, lysed 48 h after transfection (150 mM NaCl, 50 mM Tris-HCl pH 7.4, 10% glycerol, 0.5% Triton X-100); immunoprecipitated with anti-Flag beads, immunoblot (Fig. 4a, 4c); in Fig. 4c cells pretreated 48 h with dsRNAs against tube or pelle
T1 sequence: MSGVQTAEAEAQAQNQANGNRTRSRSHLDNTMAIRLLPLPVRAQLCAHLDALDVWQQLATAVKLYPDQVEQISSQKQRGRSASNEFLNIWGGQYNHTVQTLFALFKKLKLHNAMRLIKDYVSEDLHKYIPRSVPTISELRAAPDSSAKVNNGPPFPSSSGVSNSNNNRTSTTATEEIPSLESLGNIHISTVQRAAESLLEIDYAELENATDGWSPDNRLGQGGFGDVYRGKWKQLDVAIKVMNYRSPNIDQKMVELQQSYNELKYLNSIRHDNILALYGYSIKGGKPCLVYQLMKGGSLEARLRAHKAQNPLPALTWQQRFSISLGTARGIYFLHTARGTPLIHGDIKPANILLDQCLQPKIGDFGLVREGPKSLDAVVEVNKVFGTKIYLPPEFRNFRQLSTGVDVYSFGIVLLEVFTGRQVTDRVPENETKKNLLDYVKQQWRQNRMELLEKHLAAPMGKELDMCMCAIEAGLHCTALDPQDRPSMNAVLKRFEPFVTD

[1] = molecular target: T2, Drosophila MyD88 (Drosophila) (UniProt Q7K105); assay: as above
T2 sequence: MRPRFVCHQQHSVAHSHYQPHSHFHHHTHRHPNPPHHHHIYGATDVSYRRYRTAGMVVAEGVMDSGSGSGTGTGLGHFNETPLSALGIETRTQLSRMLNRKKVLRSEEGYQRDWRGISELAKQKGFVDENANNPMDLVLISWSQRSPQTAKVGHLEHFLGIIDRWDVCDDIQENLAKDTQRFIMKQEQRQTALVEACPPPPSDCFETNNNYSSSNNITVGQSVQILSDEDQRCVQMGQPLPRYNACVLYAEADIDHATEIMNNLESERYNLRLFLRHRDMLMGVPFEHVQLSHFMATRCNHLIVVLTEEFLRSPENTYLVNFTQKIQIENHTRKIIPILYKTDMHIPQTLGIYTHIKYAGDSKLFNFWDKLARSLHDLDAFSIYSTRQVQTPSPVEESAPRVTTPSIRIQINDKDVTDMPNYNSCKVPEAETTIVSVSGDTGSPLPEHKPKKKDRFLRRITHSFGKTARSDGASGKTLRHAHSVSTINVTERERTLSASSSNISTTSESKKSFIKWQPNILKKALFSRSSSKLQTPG

Tube (Drosophila) = molecular target: T3, Tube (Drosophila) (UniProt P22812); assay: co-IP; S2 cells co-transfected, lysed 48 h after transfection (150 mM NaCl, 50 mM Tris-HCl pH 7.4, 10% glycerol, 0.5% Triton X-100); immunoprecipitated with anti-Myc beads, immunoblot (Fig. 4b, 5f)
T3 sequence: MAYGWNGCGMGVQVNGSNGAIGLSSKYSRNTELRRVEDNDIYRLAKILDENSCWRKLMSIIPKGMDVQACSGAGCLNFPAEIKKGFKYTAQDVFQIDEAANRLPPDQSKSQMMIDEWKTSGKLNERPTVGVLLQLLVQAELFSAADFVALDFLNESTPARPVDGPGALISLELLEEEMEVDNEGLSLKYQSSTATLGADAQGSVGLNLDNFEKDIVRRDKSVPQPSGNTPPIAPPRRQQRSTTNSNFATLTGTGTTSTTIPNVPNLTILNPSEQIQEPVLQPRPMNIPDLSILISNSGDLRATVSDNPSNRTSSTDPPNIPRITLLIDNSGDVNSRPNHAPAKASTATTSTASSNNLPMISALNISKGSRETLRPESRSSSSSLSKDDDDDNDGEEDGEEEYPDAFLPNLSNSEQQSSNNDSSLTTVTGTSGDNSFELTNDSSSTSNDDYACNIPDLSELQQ

[2] = molecular target: T2, Drosophila MyD88 (Drosophila); assay: as above
[3] = molecular target: T2, Drosophila MyD88 (Drosophila); assay: co-IP; co-immunoprecipitation of Pellino S/T-to-A mutants with MyD88 (Supplementary Fig. 9b); beads and tags not told

binding (Pelle (Drosophila)): binds
binding [1]: binds
binding (Tube (Drosophila)): binds
binding [2]: binds
binding [3]: binds
B1: Drosophila Pellino (enzyme, UniProt O77237 1-424)
chain: MVKRTDGTESPILAEDGGDGHDKPRLRYGELVILGYNGYLPQGDRGRRRSKFVLHKRTEASGVKRSKHYIVQSPQTSKAILDANQHSISYTLSRNQAVIVEYKEDTETDMFQVGRSSESPIDFVVMDTLPGDKKDAKVMQSTISRFACRILVNRCEPAKARIFAAGFDSSRNIFLGEKATKWQDNVEIDGLTTNGVLIMHPKGSFCGGNAKCGLWRECSVGGDVFSLRESRSAQQKGQPIYDECNILQDGTLIDLCGATLLWRSAEGLQHSPTKHDLEKLIDAINAGRPQCPVGLNTLVIPRKVNIGDQVNQPYVYLNCGHVQGHHDWGQDENTGARRCPMCLELGPVVTLCMGLEPAFYVDVGAPTYAFNPCGHMATEKTVKYWANVEIPHGTNGFQAVCPFCATPLDGATGYIKLIFQDNLD

From publication PMC3959197
